The values are deposited in ChEMBL (CHEMBL3988442, “University of Dundee, Small-Polar-MMV Screening Library” (2021)).

By UniProt entry, the sequences of proteins in these tests, tags left out. Residues count along the entry.
UniProt P9WFT3, whole entry: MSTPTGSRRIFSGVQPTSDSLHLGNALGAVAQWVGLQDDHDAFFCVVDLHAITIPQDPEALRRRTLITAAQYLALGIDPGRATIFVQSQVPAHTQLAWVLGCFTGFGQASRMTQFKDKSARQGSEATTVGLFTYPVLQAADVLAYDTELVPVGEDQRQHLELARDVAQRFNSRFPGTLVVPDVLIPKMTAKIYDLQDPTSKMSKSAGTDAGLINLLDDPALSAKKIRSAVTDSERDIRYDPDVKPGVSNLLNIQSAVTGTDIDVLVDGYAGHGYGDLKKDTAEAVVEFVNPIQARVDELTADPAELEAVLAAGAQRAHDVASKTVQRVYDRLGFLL
UniProt Q8IDJ8, 1-583: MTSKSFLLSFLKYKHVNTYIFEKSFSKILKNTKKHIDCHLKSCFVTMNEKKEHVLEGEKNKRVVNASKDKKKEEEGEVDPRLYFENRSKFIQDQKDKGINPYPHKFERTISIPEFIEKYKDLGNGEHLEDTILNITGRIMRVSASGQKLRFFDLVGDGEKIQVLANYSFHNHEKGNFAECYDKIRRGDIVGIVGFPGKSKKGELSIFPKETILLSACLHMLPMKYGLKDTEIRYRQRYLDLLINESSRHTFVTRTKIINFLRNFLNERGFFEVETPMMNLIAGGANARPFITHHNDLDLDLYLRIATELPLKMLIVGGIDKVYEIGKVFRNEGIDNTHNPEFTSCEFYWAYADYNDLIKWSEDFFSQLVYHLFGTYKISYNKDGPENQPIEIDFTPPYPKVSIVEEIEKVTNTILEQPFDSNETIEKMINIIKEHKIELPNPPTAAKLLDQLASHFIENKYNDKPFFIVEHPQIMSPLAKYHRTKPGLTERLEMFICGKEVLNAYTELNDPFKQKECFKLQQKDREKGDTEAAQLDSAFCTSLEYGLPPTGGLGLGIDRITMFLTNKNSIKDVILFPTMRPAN
UniProt P9WNZ1, whole entry: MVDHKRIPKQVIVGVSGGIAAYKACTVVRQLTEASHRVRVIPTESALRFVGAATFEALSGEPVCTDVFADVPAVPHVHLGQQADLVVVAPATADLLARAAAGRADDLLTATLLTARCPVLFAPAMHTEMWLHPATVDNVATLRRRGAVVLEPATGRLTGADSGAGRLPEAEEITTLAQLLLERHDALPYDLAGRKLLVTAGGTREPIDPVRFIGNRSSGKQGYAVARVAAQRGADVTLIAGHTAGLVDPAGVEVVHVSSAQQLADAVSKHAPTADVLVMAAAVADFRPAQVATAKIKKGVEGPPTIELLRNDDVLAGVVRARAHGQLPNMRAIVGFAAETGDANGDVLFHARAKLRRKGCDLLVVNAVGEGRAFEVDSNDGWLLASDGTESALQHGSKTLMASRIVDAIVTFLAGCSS
UniProt P9WPC5, whole entry: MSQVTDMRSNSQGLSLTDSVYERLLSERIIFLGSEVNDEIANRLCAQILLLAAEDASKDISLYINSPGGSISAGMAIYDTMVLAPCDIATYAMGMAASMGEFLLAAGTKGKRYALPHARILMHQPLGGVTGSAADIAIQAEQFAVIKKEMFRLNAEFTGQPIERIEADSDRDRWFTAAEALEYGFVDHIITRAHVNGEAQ
UniProt P9WPC3, whole entry partner: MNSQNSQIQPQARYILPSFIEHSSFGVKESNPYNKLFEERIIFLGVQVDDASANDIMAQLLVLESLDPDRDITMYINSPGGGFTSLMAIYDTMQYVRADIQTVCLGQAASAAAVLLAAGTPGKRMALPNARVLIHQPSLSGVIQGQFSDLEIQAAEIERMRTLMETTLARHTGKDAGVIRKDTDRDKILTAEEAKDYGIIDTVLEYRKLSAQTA
UniProt Q4DA54, 1-478: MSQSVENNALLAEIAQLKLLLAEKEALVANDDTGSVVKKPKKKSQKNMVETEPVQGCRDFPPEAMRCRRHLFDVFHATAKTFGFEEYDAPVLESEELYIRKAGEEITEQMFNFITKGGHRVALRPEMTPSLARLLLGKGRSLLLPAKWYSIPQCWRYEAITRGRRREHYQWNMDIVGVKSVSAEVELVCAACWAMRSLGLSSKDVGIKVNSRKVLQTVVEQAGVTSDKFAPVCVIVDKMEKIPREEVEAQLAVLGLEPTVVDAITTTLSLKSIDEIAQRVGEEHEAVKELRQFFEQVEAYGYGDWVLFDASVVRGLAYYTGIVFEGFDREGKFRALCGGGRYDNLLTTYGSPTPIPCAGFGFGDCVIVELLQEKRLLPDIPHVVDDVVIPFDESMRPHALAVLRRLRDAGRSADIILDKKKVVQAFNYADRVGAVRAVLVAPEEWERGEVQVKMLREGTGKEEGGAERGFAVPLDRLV

A: 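Tryptophan-tRNA ligase, Mycobacterium tuberculosis (UniProt P9WFT3). Enzyme assay of tryptophanyl-tRNA synthetase; the read-out is not stated. Tested at 10 µM. Higher most likely means stronger inhibition; the record gives no direction and few retests gave an IC50. About 65,000 compounds were tested under these conditions; 0.098% (about 64) showed 50% or more at least once.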
B: 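Enzyme assay of the cytosolic lysyl-tRNA synthetase in 384-well plates, read by luminescence. Target: Lysine-tRNA ligase, Plasmodium falciparum 3D7 (UniProt Q8IDJ8). Compounds at 30 µM. Higher reads as stronger inhibition, judged from the few compounds that gave an IC50. Size under these conditions: about 69,000 compounds, about 49 of them at 50% or above in at least one test.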
C: 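Enzyme assay of CoaBC with a phosphate dye (Biomol Green) read at 650 nm. Target: Coenzyme A biosynthesis protein CoaBC, Mycobacterium tuberculosis (UniProt P9WNZ1). Concentration: 30 µM. Higher reads as stronger inhibition, judged from the few compounds that gave an IC50. Most strong results did not repeat in a second test. Size under these conditions: about 67,000 compounds, about 40 of them at 50% or above in at least one test.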
D: 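ClpP1P2, Mycobacterium tuberculosis (UniProt P9WPC5 and UniProt P9WPC3). Protease assay of ClpP1P2, read by the AMC dye that it sets free. Concentration: 50 µM. Direction is inferred from only a few compounds that gave an IC50; most scored high, so higher reads as stronger inhibition. Most other retested compounds had strongly negative values. Of about 69,000 compounds tested this way, about 10 (0.015%) reached 50% or more in at least one test.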
E: 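Enzyme assay of histidyl-tRNA synthetase; the read-out is not stated. Target: Histidine-tRNA ligase, Trypanosoma cruzi CL Brener (UniProt Q4DA54). Concentration: 30 µM. Higher reads as stronger inhibition (inferred: compounds with an IC50 in retests scored well above the rest). Of about 69,000 compounds tested this way, about 31 (0.045%) reached 50% or more in at least one test.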

Values are the deposited “Percent Effect”, in %. How 0% and 100% were set is not recorded. Most values in the screen are low, and negative values occur. The compounds are a random part of those screened. A dash means the value is not listed here; it may have been measured.

compound	A	B	C	D	E
Cc1nc2n(n1)CC(NCc1nc3ccccc3o1)CC2 (stereo not given)	-2.808	4.102	-4.224	13.05	2.564
O=C(c1cnn(-c2ccccc2)c1)N1CCN(c2cnccn2)CC1	-2.57	3.947	9.81	-2.089	0.4926
CC(c1ccc(F)cc1)N1CCN(Cc2ccc(C#N)cc2)CC1 (stereo not given)	5.712	4.696	2.017	8.419	2.256
COCCNC(=O)[C@@]12CCO[C@@H]1CCN(Cc1c(C)noc1C)C2	3.547	3.657	1.158	4.792	1.639
COCCN1CCCC(O)(CN2CCN(Cc3ccncc3)CC2)C1=O (stereo not given)	1.215	7.638	3.968	-4.439	8.163
CN(C)c1ncccc1CNC(=O)NCc1cccs1	3.336	1.425	1.434	-7.504	2.857
Cc1cc(C)n(CC2(CNC(=O)C(c3ccc(F)cc3)N(C)C)CC2)n1 (stereo not given)	-1.514	4.185	-	-1.168	7.006
CCCNC(=O)c1ncn2c1CN(CC(C)C)S(=O)(=O)c1ccccc1-2	3.704	-4.783	-2.284	-9.267	1.97
Cc1ccc(CN2CCC3(CC2)CN(c2cnn(C)c2)C(=O)CO3)o1	3.043	8.439	4.762	0.8936	2.439
Cc1cc(CN2CCCC(c3cc(C(F)(F)F)[nH]n3)C2)no1 (stereo not given)	-4.946	0.5433	3.655	-20.66	6.215
O=S(=O)(NC1CCCOC1)c1ccc(C(F)(F)F)nc1 (stereo not given)	1.497	3.906	-0.1258	-11.57	-2.679
CC(C(=O)N1CCC(Nc2cccnn2)CC1)n1cccn1 (stereo not given)	4.993	-3.289	-7.018	-8.785	-0.5814
CC(C)NC(=O)N1CC[C@@H]2CN(S(C)(=O)=O)CCO[C@@H]2C1	-	6.132	3.713	-9.389	8.84
CC(C(=O)N1CCN(Cc2ccncc2)CC1)n1cncn1 (stereo not given)	2.905	6.558	7.107	-4.627	1.345
Cn1cnc(S(=O)(=O)N2C[C@H]3CN(Cc4cccnc4)C[C@H]3C2)c1	-0.9161	0.64	-1.48	-2.195	6.452
Cn1cccc1C(O)CNC(=O)c1ccc2nsnc2c1 (stereo not given)	0.5939	-0.9258	5.98	-2.426	6.25
Cc1ccccc1N1CC(C)N(C(=O)CCn2cccn2)CC1=O (stereo not given)	-5.556	-0.3781	-1.716	-22.21	-2.381
N[C@H]1CN(C(=O)c2ccccc2OCc2ccccc2)C[C@@H]1C1CC1	1.737	6.109	1.366	-37.92	5.797
CN1N=C(C(=O)N2CCCC(n3cccn3)C2)CCC1=O (stereo not given)	-5.932	1.292	2.91	-23.92	3.198
CN(C)C(=O)CCCNC(=O)C(c1cccc(F)c1)N(C)C (stereo not given)	-1.78	-3.862	-2.345	6.062	4.167
CC(c1cccc(S(N)(=O)=O)c1)N(C)CCCOc1ccccc1 (stereo not given)	1.306	2.412	2.413	-7.728	1.994
COc1ccc(NC(=O)N2CCCCC2c2ncc[nH]2)cc1 (stereo not given)	-1.04	6.524	10.95	5.782	1.587
CC(C)c1csc(NC(=O)NC2CCCN(c3cnn(C)c3)C2)n1 (stereo not given)	-1.083	4.422	1.844	1.663	2.128
CC(=O)N1CCCCC1c1nnc2n1CCNC2 (stereo not given)	18.41	1.331	1.316	0.09211	4.142
Cn1nccc1C1CCN(CC(=O)NCC2CC2)CC1	-5.96	-0.2762	1.837	-7.834	5.143
COc1ccccc1-n1nc(CC(C)C)nc1CSc1nnc(N)s1	-2.506	-2.701	9.63	-4.507	2.488
CCc1ncc(CN2CCC(O)(c3ccccc3F)CC2)cn1	-7.74	0.5549	-5.782	-2.589	6.818
OCc1ccc(CN2CCC(n3cc(-c4ccc(F)cc4)nn3)CC2)o1	-0.854	-0.7249	3.736	-4.593	0
Cc1nc(C2CCCN2Cc2cc(Cl)c3c(c2)OCCCO3)no1 (stereo not given)	0.06345	-0.6561	-1.489	-3.485	14.45
COCC(NC(=O)c1ccoc1)c1ccc(C)o1 (stereo not given)	-3.926	3.576	-6.838	-24.23	7.027
Cc1csc(-c2ccc(NC(=O)N3CCOCC3)cc2)n1	-23.17	2.39	15.33	-0.02573	1.02
CN(C)c1ccc(CCNC(=O)C2CCC(=O)N(C3CCCC3)C2)cc1 (stereo not given)	2.131	8.654	-0.4464	-3.54	5.394
Cc1nccn1-c1ccccc1CNC(=O)c1cn(CCN)nn1	-4.094	5.415	0.5115	-14.37	-5.051
CS(=O)(=O)NCC1CCCN(C(=O)COCC(F)(F)F)C1 (stereo not given)	4.974	7.924	6.218	22.51	0.7634
O=C(NCc1ccccc1-n1cccn1)N1CCC(N2CCCC2)C1 (stereo not given)	-2.682	2.488	6.527	-40.2	7.91
O=C(NCCCN1CCOCC1)c1cc(-c2ccco2)[nH]n1	-3.043	-0.1715	-1.505	0.2257	4.132
Cc1csc(NC(=O)c2ccc(NC(=O)N3CCOCC3)cc2)n1	2.994	2.032	-4.948	3.947	8.808
CCOc1cccc(CN(Cc2cnn(C)c2)CC(C)C)c1O	3.366	3.249	2.826	-5.925	5.952
CN1CC(=O)N(c2cnn(C)c2)CC12CCN(Cc1nccn1C)C2 (stereo not given)	0.4112	-5.019	5.376	4.911	2.479
CN(C)C(=O)c1nc(CN2CC(Cc3ccccc3)CC2=O)no1 (stereo not given)	-2.651	6.551	-1.935	-15.22	8.374
CC(C)NC(=O)COc1ccc(-c2nc(C(C)C)no2)cc1	0.432	1.255	4.369	-0.8227	4.95
CC(c1ccccc1)N(C)C(=O)CNCCn1cccn1 (stereo not given)	0.8909	0.8823	-0.6361	1.481	11.06
Cc1cccc(OCCC(=O)NCC2CN(C)CCO2)c1C (stereo not given)	-0.9358	3.273	3.684	-29.4	4.985
CCCN(CC)C(=O)c1cc2c(c3ccccc3n2C)n1C(=O)N(C)C	-1.246	4.702	-0.3861	2.044	1.639
CC(NC(=O)Nc1nccs1)c1ccncc1 (stereo not given)	-1.321	5.134	-1.739	6.869	-5.641
O=C([C@@H]1CCCN1c1nccc(Nc2ccccc2)n1)N1CCCCC1	-	1.435	1.214	5.912	-3.409
c1cnc(N2CCO[C@H]3CN(CC4CCC4)C[C@H]32)cn1	-	6.052	2.475	-18.08	6.63
CCCC(C)Sc1nnnn1C1CCOCC1 (stereo not given)	0.6387	-2.082	-0.861	-5.989	1.149
CC(=O)N1C[C@@H](c2ccsc2)[C@@H]2CN(Cc3ccccc3)CC[C@@H]21	-0.4167	7.76	-0.1309	-6.008	8.602
COCCN1CCO[C@@H]2CN(Cc3ccccn3)C[C@@H]2C1	-2.913	8.239	-	-7.428	11.39

Some entries from above, unchanged:

compound	A	B	C	D	E
CS(=O)(=O)NCC1CCCN(C(=O)COCC(F)(F)F)C1 (stereo not given)	4.974	7.924	6.218	22.51	0.7634
Cn1cnc(S(=O)(=O)N2C[C@H]3CN(Cc4cccnc4)C[C@H]3C2)c1	-0.9161	0.64	-1.48	-2.195	6.452
COc1ccc(NC(=O)N2CCCCC2c2ncc[nH]2)cc1 (stereo not given)	-1.04	6.524	10.95	5.782	1.587
COc1ccccc1-n1nc(CC(C)C)nc1CSc1nnc(N)s1	-2.506	-2.701	9.63	-4.507	2.488
Cc1ccc(CN2CCC3(CC2)CN(c2cnn(C)c2)C(=O)CO3)o1	3.043	8.439	4.762	0.8936	2.439